# In PubChem BioAssay AID504467 (National Center for Advancing Translational Sciences (NCATS), 2011):
# Among all 330,000 compounds or so, about 7,700 (2.3%) were called active. All entries are inconclusive by the source's own rule. Clear calls are listed elsewhere. Calls come from the whole dose curve; as a rule, active = well fitted inhibition curve with a large enough effect; inconclusive = small, poorly fitted or top-dose-only effect, or effect the other way; inactive = flat fitted curve, though single readings scatter.
# Assay: qHTS screen for small molecules that inhibit ELG1-dependent DNA repair in human embryonic kidney (HEK293T) cells expressing luciferase-tagged ELG1; note: nearly all actives have a fitted effect of over 55% in size
# Conditions: HEK293T ELG1-luciferase reporter, luminescence, 16 h; DNA damage induced by 5-fluorouridine
# Potency is the fitted concentration of half-maximal effect.
row,Compound,Potency
1,CN(C)c1ccc(C(=O)NCC2(N3CCCCC3)CCCCC2)cc1,inconclusive: 6.51 µM
2,CCCOc1ccc(C)cc1CN(CCCl)CCCl,inconclusive: 29.1 µM
3,N#Cc1ccc(C(=O)NCC2(N3CCCCC3)CCCCC2)cc1,inconclusive: 0.58 µM
4,CC(C)c1ccc(C(=O)NCC2(N3CCOCC3)CCCCC2)cc1,inconclusive: 20.6 µM
5,O=[N+]([O-])c1cc([N+](=O)[O-])c(NCC2CCS(=O)(=O)C2)c([N+](=O)[O-])c1 (centres undefined),inconclusive: 6.51 µM
6,N#CC1(Nc2ccccc2)CCN(CCc2ccccc2)CC1,inconclusive: 0.0291 µM
7,COc1cc(OC)c(C(=O)NCC2(N(C)C)CCCCC2)cc1OC,inconclusive: 16.4 µM
8,O=C(NCC1(N2CCOCC2)CCCCC1)c1cc(F)c(F)cc1Cl,inconclusive: 20.6 µM
9,O=C(NCC1(N2CCCCC2)CCCCC1)c1ccc(F)cc1,inconclusive: 10.3 µM
